Test results as given in PubChem BioAssay AID248 (DTP/NCI, 2004).
The list does not hold the whole screen: it gathers some chemical classes. Not every dose and run of a compound is shown. T/C: endpoint of the treated group in % of that of the vehicle group. Where survival is the endpoint, the PubChem record calls one and a half times the control and up active, and a quarter to a half above the control has no call in these data; cut-offs in other NCI protocols can differ. Some entries show no survivor count and are marked so; the dose need not have been tolerated. Schedule codes are those of the source, read here as Q, the interval in days (D) or hours (H), X, the number of doses. Some schedules carry Z or #; the key to these is not given. Some entries hold several experiments; the results are listed from low to high.

System: L1210 leukemia ip in BDF1 mice, survival T/C
Assay: NCI In Vivo Anticancer Drug Screen. Data for tumor model L1210 Leukemia (intraperitoneal) in B6D2F1 (BDF1) mice
Conditions: T/C endpoint: mean survival time, higher T/C = longer survival

NC(Cc1ccccc1N(CCCl)CCCl)C(=O)O (stereo not given)
T/C (dose: 0.01 mg/kg/injection, schedule: Q01DX Z (ip), vehicle: carboxymethylcellulose (CMC)): 185 % of control [survivor count not shown]
T/C (dose: 0.03 mg/kg/injection, schedule: Q01DX Z (ip), vehicle: carboxymethylcellulose (CMC)): 125 % of control [survivor count not shown]
T/C (dose: 0.04 mg/kg/injection, schedule: Q01DX005 (ip), vehicle: saline): 94 % of control [survivor count not shown]
T/C (dose: 0.04 mg/kg/injection, schedule: Q01DX009 (ip), vehicle: saline): 101 % of control [survivor count not shown]
T/C (dose: 0.06 mg/kg/injection, schedule: Q01DX Z (ip), vehicle: carboxymethylcellulose (CMC)): 101 [survivor count not shown] and 128 % of control [survivor count not shown]
T/C (dose: 0.08 mg/kg/injection, schedule: Q01DX005 (ip), vehicle: saline): 116 % of control [survivor count not shown]
T/C (dose: 0.08 mg/kg/injection, schedule: Q01DX009 (ip), vehicle: saline): 110 % of control [survivor count not shown]
T/C (dose: 0.12 mg/kg/injection, schedule: Q01DX Z (ip), vehicle: carboxymethylcellulose (CMC)): 152 % of control [survivor count not shown]
T/C (dose: 0.16 mg/kg/injection, schedule: Q01DX005 (ip), vehicle: saline): 110 % of control [survivor count not shown]
T/C (dose: 0.16 mg/kg/injection, schedule: Q01DX009 (ip), vehicle: saline): 106 % of control [survivor count not shown]
T/C (dose: 0.2 mg/kg/injection, schedule: Q01DX009 (oral), vehicle: saline): 101 % of control [survivor count not shown]
T/C (dose: 0.25 mg/kg/injection, schedule: Q01DX010 (ip), vehicle: saline): 135 % of control [survivor count not shown]
T/C (dose: 0.25 mg/kg/injection, schedule: Q01DX Z (ip), vehicle: carboxymethylcellulose (CMC)): 162 % of control [survivor count not shown]
T/C (dose: 0.25 mg/kg/injection, schedule: Q01DX Z (ip), vehicle: methylcellulose (MC)): 113 % of control [survivor count not shown]
T/C (dose: 0.25 mg/kg/injection, schedule: Q01DX Z (oral), vehicle: carboxymethylcellulose (CMC)): 122 % of control [survivor count not shown]
T/C (dose: 0.3 mg/kg/injection, schedule: Q03HX024 (ip), vehicle: saline): 115 % of control [survivor count not shown]
T/C (dose: 0.3 mg/kg/injection, schedule: Q04DX003 (ip), vehicle: saline): 113 % of control [survivor count not shown]
T/C (dose: 0.32 mg/kg/injection, schedule: Q01DX005 (ip), vehicle: saline): 119 % of control [survivor count not shown]
T/C (dose: 0.32 mg/kg/injection, schedule: Q01DX009 (ip), vehicle: saline): 106 % of control [survivor count not shown]
T/C (dose: 0.38 mg/kg/injection, schedule: Q03DX Z (ip), vehicle: carboxymethylcellulose (CMC)): 128 % of control [survivor count not shown]
T/C (dose: 0.4 mg/kg/injection, schedule: Q01DX009 (oral), vehicle: saline): 121 % of control [survivor count not shown]
T/C (dose: 0.4 mg/kg/injection, schedule: Q01DX009 (sc), vehicle: saline): 101 % of control [survivor count not shown]
T/C (dose: 0.44 mg/kg/injection, schedule: Q01DX001 (ip), vehicle: carboxymethylcellulose (CMC)): 125 % of control [survivor count not shown]
T/C (dose: 0.5 mg/kg/injection, schedule: Q01DX006 (iv), vehicle: carboxymethylcellulose (CMC)): 101 % of control [survivor count not shown]
T/C (dose: 0.5 mg/kg/injection, schedule: Q01DX010 (ip), vehicle: saline): 148 % of control [survivor count not shown]
T/C (dose: 0.5 mg/kg/injection, schedule: Q01DX Z (im), vehicle: carboxymethylcellulose (CMC)): 111 % of control [survivor count not shown]
T/C (dose: 0.5 mg/kg/injection, schedule: Q01DX Z (ip), vehicle: carboxymethylcellulose (CMC)): 156 % of control [survivor count not shown]
T/C (dose: 0.5 mg/kg/injection, schedule: Q01DX Z (ip), vehicle: methylcellulose (MC)): 174 % of control [survivor count not shown]
T/C (dose: 0.5 mg/kg/injection, schedule: Q01DX Z (oral), vehicle: carboxymethylcellulose (CMC)): 175 % of control [survivor count not shown]
T/C (dose: 0.5 mg/kg/injection, schedule: Q01DX Z (sc), vehicle: carboxymethylcellulose (CMC)): 106 % of control [survivor count not shown]
T/C (dose: 0.5 mg/kg/injection, schedule: Q03HX016 (ip), vehicle: saline): 100 % of control [survivor count not shown]
T/C (dose: 0.5 mg/kg/injection, schedule: Q08DX002 (ip), vehicle: saline): 113 % of control [survivor count not shown]
T/C (dose: 0.6 mg/kg/injection, schedule: Q03HX024 (ip), vehicle: saline): 108 % of control [survivor count not shown]
T/C (dose: 0.6 mg/kg/injection, schedule: Q04DX003 (ip), vehicle: saline): 121 % of control [survivor count not shown]
T/C (dose: 0.64 mg/kg/injection, schedule: Q01DX005 (ip), vehicle: saline): 124 % of control [survivor count not shown]
T/C (dose: 0.64 mg/kg/injection, schedule: Q01DX009 (ip), vehicle: saline): 120 % of control [survivor count not shown]
T/C (dose: 0.75 mg/kg/injection, schedule: Q03DX Z (ip), vehicle: carboxymethylcellulose (CMC)): 152 % of control [survivor count not shown]
T/C (dose: 0.8 mg/kg/injection, schedule: Q01DX009 (oral), vehicle: saline): 117 % of control [survivor count not shown]
T/C (dose: 0.8 mg/kg/injection, schedule: Q01DX009 (sc), vehicle: saline): 115 % of control [survivor count not shown]
T/C (dose: 0.88 mg/kg/injection, schedule: Q01DX001 (ip), vehicle: carboxymethylcellulose (CMC)): 106 % of control [survivor count not shown]
T/C (dose: 0.88 mg/kg/injection, schedule: Q07DX Z (ip), vehicle: carboxymethylcellulose (CMC)): 143 % of control [survivor count not shown]
T/C (dose: 1.0 mg/kg/injection, schedule: Q01DX006 (iv), vehicle: carboxymethylcellulose (CMC)): 116 % of control [survivor count not shown]
T/C (dose: 1.0 mg/kg/injection, schedule: Q01DX010 (ip), vehicle: saline): 167 % of control [survivor count not shown]
T/C (dose: 1.0 mg/kg/injection, schedule: Q01DX Z (im), vehicle: carboxymethylcellulose (CMC)): 126 % of control [survivor count not shown]
T/C (dose: 1.0 mg/kg/injection, schedule: Q01DX Z (ip), vehicle: carboxymethylcellulose (CMC)): 191 % of control [survivor count not shown]
T/C (dose: 1.0 mg/kg/injection, schedule: Q01DX Z (ip), vehicle: methylcellulose (MC)): 202 % of control [survivor count not shown]
T/C (dose: 1.0 mg/kg/injection, schedule: Q01DX Z (oral), vehicle: carboxymethylcellulose (CMC)): 181 % of control [survivor count not shown]
T/C (dose: 1.0 mg/kg/injection, schedule: Q01DX Z (sc), vehicle: carboxymethylcellulose (CMC)): 152 % of control [survivor count not shown]
T/C (dose: 1.0 mg/kg/injection, schedule: Q03HX016 (ip), vehicle: saline): 109 % of control [survivor count not shown]
T/C (dose: 1.0 mg/kg/injection, schedule: Q03HX024 (ip), vehicle: saline): 122 % of control [survivor count not shown]
T/C (dose: 1.0 mg/kg/injection, schedule: Q04DX003 (ip), vehicle: saline): 151 % of control [survivor count not shown]
T/C (dose: 1.0 mg/kg/injection, schedule: Q08DX002 (ip), vehicle: saline): 117 % of control [survivor count not shown]
T/C (dose: 1.2 mg/kg/injection, schedule: Q03HX024 (ip), vehicle: saline): 121 % of control [survivor count not shown]
T/C (dose: 1.2 mg/kg/injection, schedule: Q04DX003 (ip), vehicle: saline): 133 % of control [survivor count not shown]
T/C (dose: 1.28 mg/kg/injection, schedule: Q01DX005 (ip), vehicle: saline): 140 % of control [survivor count not shown]
T/C (dose: 1.28 mg/kg/injection, schedule: Q01DX009 (ip), vehicle: saline): 125 % of control [survivor count not shown]
T/C (dose: 1.5 mg/kg/injection, schedule: Q03DX Z (ip), vehicle: carboxymethylcellulose (CMC)): 192 % of control [survivor count not shown]
T/C (dose: 1.6 mg/kg/injection, schedule: Q01DX001 (ip), vehicle: saline): 129 % of control [survivor count not shown]
T/C (dose: 1.6 mg/kg/injection, schedule: Q01DX001 (oral), vehicle: saline): 103 % of control [survivor count not shown]
T/C (dose: 1.6 mg/kg/injection, schedule: Q01DX009 (oral), vehicle: saline): 127 % of control [survivor count not shown]
